We go through one molecule from publication PMC545490, “Mapping and mutation of the conserved DNA polymerase interaction motif (DPIM) located in the C-terminal domain of fission yeast DNA polymerase δ subunit Cdc27” (BMC Molecular Biology, 2004).

Chains of the proteins cited; added tags and fusions are not shown. Lines headed by an entry give the natural chain unless they say otherwise; changes in a name come on top.
UniProt P28040: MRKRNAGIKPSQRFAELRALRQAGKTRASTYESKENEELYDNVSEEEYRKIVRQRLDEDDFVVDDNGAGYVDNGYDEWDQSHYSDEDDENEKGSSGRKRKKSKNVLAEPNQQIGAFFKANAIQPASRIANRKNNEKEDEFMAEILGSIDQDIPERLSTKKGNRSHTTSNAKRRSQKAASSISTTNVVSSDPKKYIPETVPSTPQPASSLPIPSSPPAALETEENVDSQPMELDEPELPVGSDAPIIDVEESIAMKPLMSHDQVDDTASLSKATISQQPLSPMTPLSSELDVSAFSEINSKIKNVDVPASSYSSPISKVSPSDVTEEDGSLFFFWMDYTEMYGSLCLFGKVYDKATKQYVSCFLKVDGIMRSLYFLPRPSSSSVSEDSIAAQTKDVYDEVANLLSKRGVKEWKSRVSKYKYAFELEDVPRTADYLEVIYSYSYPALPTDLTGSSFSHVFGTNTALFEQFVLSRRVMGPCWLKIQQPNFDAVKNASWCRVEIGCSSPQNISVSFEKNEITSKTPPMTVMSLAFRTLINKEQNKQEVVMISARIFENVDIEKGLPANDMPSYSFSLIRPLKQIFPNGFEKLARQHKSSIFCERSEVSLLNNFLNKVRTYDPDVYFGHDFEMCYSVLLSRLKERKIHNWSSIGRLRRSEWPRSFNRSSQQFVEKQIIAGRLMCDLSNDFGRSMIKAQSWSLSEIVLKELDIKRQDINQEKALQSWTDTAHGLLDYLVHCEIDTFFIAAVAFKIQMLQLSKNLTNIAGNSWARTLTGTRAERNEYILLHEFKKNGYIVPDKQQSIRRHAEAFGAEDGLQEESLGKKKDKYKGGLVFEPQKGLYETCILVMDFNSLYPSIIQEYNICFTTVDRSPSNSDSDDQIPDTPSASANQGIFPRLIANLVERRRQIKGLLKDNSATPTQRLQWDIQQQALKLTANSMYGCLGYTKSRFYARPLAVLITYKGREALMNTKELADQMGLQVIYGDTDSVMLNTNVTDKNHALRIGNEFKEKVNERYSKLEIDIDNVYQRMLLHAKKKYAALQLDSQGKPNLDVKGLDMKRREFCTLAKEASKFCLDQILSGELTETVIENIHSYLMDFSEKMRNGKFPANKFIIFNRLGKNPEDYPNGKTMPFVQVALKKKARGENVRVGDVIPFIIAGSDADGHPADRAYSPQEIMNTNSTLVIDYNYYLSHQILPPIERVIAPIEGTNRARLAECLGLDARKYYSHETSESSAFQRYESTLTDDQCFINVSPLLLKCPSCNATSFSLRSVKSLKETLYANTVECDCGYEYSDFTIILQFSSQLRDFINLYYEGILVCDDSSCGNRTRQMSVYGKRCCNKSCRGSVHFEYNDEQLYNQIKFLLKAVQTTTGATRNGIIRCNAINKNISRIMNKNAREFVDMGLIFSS

No constants are given. Whether binding was seen depends on the method and setting. Sequences can lack the tags named with a protein.

Experiment [1] concerns the target LexA-Pol1(328–477) (S. pombe) (UniProt P28040). The experiment is described as follows: two-hybrid; Gal4 AD prey (pACT2) and LexA bait (pBTM116) in S. cerevisiae lexA op-lacZ strain CTY10-5d; β-galactosidase activity in Miller units.
The target in experiment [2] is LexA-Pol1(328–527) (S. pombe) (UniProt P28040). The experiment is described as above.

B1: Full-length Cdc27 fused to the activation domain (AD) of the yeast Gal4 protein (protein, UniProt P30261 1-372)
chain: MEEWRNFLDIKVINESSLVTVDNLSLQLDISSEKAQEYLNMFYQGNDFLYPIYLIHGQPIDDEINLEIDEESQPISNFPVLQYILCDKSSLQEKQSRLKSGYKTVIFALSSAPLSDFDELLPAVYEIREKDVLYKKEDADKYGFIFNENSVPRVLKKAPSTHSPQLSVPSKTSTIDKTDTRSTEKTKGKDIFSNARNQKGNSSRKNKKAPLENHKEKEPLLPKEEKLSEQAKRERDDLKNIMQLEDESVSTTSVHDSEDDNLDSNNFQLEIGTEAKSAAPDEPQEIIKSVSGGKRRGKRKVKKYATTKDEEGFLVTKEEEVWESFSEDENISTGTSNVVRNKPTTVNIATKKKNTAQSKPQQKSIMSFFGKK
Take B1: the binding entry in experiment [1] and in experiment [2] was “no binding” throughout.
